Measurements reported in PubChem BioAssay AID1259424 (University of Nebraska Medical Center, 2018).

Purpose: 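Find knockdowns that reproduce the expression shifts seen after KSR1 loss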 (primary screen)
Cell system: human HCT116 colon cancer cells
Reagent: siRNA pool against human genes, 50 nM
Read-out: 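Log2 levels of six mRNAs (branched-DNA multiplex), adjusted by two reference genes and the non-targeting median, then scored against the average KSR1 knockdown pattern as Pearson r and euclidean distance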
Reading the numbers: mean correlation with KSR1 profile: higher = expression change more like KSR1 knockdown; mean distance from KSR1 profile: higher = expression change less like KSR1 knockdown
This is a random part of about 14,000 reagents tested. 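Higher correlation or smaller distance means closer resemblance to KSR1 loss; control wells, including KSR1 knockdowns, recur on many plates.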 The numbers tell different reagents against one gene apart. Further read-outs or replicates are left out here. No sequences are given here. The record does not give: the time to read-out.

The first 2 entries, ahead of the listing:
STK38
- mean correlation with KSR1 profile: -0.97
- mean distance from KSR1 profile: 2.89

KPNA3
- mean correlation with KSR1 profile: -0.455
- mean distance from KSR1 profile: 2.12

Main list, from the first entry:
STK38
- mean correlation with KSR1 profile: -0.97
- mean distance from KSR1 profile: 2.89

KPNA3
- mean correlation with KSR1 profile: -0.455
- mean distance from KSR1 profile: 2.12

ADAMTSL4 #1
- mean correlation with KSR1 profile: -0.426
- mean distance from KSR1 profile: 7.24

ADAMTSL4 #2
- mean correlation with KSR1 profile: 0.636
- mean distance from KSR1 profile: 1.25

MRTFA
- mean correlation with KSR1 profile: 0.659
- mean distance from KSR1 profile: 1.05

SP3
- mean correlation with KSR1 profile: 0.613
- mean distance from KSR1 profile: 1.49

MNDA
- mean correlation with KSR1 profile: 0.575
- mean distance from KSR1 profile: 1.55

LINC00652
- mean correlation with KSR1 profile: -0.356
- mean distance from KSR1 profile: 2.06

RELA
- mean correlation with KSR1 profile: 0.38
- mean distance from KSR1 profile: 2.46

RAB18
- mean correlation with KSR1 profile: 0.175
- mean distance from KSR1 profile: 2.1

MED29
- mean correlation with KSR1 profile: -0.365
- mean distance from KSR1 profile: 1.55

BABAM1
- mean correlation with KSR1 profile: 0.217
- mean distance from KSR1 profile: 1.64

TOP3A
- mean correlation with KSR1 profile: -0.0847
- mean distance from KSR1 profile: 3.28

ARSG
- mean correlation with KSR1 profile: 0.312
- mean distance from KSR1 profile: 3.71

ATP4B
- mean correlation with KSR1 profile: -0.253
- mean distance from KSR1 profile: 2.23

SEMA3B
- mean correlation with KSR1 profile: 0.588
- mean distance from KSR1 profile: 3.1

IRS1
- mean correlation with KSR1 profile: 0.237
- mean distance from KSR1 profile: 2.65

HEYL
- mean correlation with KSR1 profile: 0.413
- mean distance from KSR1 profile: 1.66

KLF3-AS1
- mean correlation with KSR1 profile: 0.424
- mean distance from KSR1 profile: 1.67
